In US20140162960A1:
Results are given in words; binding and its absence hold for the method and conditions named. In cells and extracts the contact can be indirect. Some binding calls cover weakened binding; strength is not graded here.

Sequences of proteins named here, by UniProt entry; tags and fusion partners are left off. Residues count along the entry.
UniProt P27361, residues 2-379: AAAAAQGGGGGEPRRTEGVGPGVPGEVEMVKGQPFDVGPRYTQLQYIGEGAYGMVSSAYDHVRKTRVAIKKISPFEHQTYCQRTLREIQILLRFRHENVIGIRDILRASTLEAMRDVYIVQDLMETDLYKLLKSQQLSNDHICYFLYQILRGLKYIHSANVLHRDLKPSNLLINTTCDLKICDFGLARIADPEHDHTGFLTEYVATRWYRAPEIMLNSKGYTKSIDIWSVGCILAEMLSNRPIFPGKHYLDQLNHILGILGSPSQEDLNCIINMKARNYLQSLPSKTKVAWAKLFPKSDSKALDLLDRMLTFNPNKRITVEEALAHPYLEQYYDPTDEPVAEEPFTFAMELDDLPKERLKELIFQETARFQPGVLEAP
UniProt P28482, residues 2-360: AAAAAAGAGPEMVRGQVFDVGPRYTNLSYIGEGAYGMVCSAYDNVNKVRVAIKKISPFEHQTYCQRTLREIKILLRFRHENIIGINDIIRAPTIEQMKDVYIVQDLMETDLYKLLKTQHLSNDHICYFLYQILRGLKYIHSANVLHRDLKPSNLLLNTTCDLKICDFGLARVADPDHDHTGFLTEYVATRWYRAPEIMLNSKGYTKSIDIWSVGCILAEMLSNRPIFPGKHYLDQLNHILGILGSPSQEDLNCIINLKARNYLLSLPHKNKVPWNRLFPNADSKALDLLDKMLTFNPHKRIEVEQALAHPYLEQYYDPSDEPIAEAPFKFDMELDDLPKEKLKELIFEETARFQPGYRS
UniProt P46940, residues 2-1657: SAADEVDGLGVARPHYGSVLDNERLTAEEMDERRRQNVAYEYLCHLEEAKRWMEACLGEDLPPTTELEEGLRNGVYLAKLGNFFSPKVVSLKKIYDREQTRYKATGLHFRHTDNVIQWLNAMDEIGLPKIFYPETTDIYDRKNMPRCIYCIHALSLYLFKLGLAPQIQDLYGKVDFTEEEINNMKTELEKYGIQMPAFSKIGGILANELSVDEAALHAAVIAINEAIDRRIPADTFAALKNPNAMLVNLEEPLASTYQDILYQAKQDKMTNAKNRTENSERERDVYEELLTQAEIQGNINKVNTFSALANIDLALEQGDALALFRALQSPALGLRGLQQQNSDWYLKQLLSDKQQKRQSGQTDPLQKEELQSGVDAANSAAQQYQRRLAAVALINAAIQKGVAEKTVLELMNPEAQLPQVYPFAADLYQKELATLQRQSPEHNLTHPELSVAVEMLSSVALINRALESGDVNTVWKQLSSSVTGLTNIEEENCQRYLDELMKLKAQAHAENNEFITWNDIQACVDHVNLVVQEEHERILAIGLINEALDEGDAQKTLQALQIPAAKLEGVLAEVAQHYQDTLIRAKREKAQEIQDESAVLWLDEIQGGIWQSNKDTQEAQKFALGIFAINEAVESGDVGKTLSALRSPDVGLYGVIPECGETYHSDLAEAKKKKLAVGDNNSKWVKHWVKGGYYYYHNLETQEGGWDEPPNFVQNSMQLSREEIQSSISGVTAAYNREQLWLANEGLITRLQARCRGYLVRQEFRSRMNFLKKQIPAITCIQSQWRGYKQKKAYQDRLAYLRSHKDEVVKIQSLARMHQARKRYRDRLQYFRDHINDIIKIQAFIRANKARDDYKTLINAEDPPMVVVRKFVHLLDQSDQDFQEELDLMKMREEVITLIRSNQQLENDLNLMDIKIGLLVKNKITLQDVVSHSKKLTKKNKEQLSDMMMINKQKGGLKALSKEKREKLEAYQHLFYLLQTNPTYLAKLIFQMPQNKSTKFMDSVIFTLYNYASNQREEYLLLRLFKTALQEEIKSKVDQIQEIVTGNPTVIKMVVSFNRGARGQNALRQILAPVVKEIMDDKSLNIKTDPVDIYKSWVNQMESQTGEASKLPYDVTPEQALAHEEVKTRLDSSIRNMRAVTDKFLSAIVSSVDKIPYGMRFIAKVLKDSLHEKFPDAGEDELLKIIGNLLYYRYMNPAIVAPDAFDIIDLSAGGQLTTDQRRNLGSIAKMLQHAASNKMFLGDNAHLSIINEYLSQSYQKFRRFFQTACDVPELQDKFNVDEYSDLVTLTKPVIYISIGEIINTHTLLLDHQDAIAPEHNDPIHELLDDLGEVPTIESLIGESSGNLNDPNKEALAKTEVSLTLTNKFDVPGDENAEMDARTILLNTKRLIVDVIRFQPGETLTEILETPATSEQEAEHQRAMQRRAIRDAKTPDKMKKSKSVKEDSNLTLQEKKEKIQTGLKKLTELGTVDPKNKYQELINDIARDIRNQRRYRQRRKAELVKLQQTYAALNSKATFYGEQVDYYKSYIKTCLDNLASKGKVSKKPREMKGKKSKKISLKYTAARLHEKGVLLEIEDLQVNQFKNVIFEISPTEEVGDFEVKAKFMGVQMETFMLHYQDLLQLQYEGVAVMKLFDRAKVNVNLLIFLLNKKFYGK

Key:
[1] = molecular target: ERK1 (extracellular signal-regulated kinase 1), endogenous (human) (UniProt P27361); experiment: co-immunoprecipitation, primary human cells and SK-Mel-28 melanoma cells
[2] = molecular target: ERK2 (extracellular signal-regulated kinase 2), endogenous (human) (UniProt P28482); experiment: as above
[3] = molecular target: ERK1 (extracellular signal-regulated kinase 1), endogenous (human) (UniProt P27361); experiment: co-immunoprecipitation with anti-IQGAP1 from cross-linked cell lysate, anti-Erk1/2 immunoblot
[4] = molecular target: ERK2 (extracellular signal-regulated kinase 2), endogenous (human) (UniProt P28482); experiment: as above

binding [1]: binds
binding [2]: binds
binding [3]: binds
binding [4]: binds
Substance: IQGAP1 (IQ motif containing GTPase activating protein 1), endogenous protein (from UniProt P46940 2-1657)
